Results as given in patent US12492252.
No constants are given. Whether binding was seen depends on the method and setting. Some binding calls cover weakened binding; strength is not graded here.

How the values were obtained:
[1] = target: cynomolgus monkey GPC3 protein (cynomolgus monkey); test: screening of recombinantly expressed rabbit clones (before the change to human constant regions)
[2] = target: cynomolgus monkey GPC3 protein (cynomolgus monkey); test: ELISA, titration on cynomolgus GPC3 protein

| binding [1] | binding [2] | Binder |
| --- | --- | --- |
| binds |  | anti-human GPC3 IgG1 antibody clone 17 (antibody, V domains shown) VH: CQSVEESGGRLVTPGTPLTLTCTVSGFSLSTYDMSWVRQAPGKGLEYIGWINSGGSPYYARWAKGRFTISKTSSTTVDLKMTSPTTEDTATYFCARHRSGYYGDIWGPGTLVTVSL VL: DPVLTQTPSSVSAAVGDTVSINCQSSQNVYKNRLAWYQQKPGQPPKLLIYGASTLASGVPSRFKGSGSGTQFTLTISDLECDDAATYYCAGGYSTIVDNTFGGGTEVVVKR |
| binds |  | anti-human GPC3 IgG1 antibody clone 121 (antibody, V domains shown) VH: CQSVEESGGRLVTPGTPLTLTCTVSGFSLSTYWMTWVRQAPGKGLEWIGIINPAGSAYYASWAKGRFTISKTSSATVDLKMTSLTAVDTATYFCAGGGGMDPWGPGTLVTVSS VL: DPVLTQTPSSVSAAVGGTVTISCQSSQNIIKDYLSWFQQKPGQPPKRLIYKTSTLPSGVPSRFKGSGSGTEFTLTISDLECDDAATYYCAASYSGNIYVFGGGTEVVVKR |
| binds |  | anti-human GPC3 IgG1 antibody clone 12 (antibody, V domains shown) VH: CQSVEESGGRLVTPGTPLTLTCTVSGFSLSTYWMTWVRQAPGKGLEWIGIINPSGSAFYASWAKGRFTISKTSSATVDLKMTSLTAADTATYFCAGGGGMDPWGPGTLVTVSS VL: DPVLTQTPSSVSAAVGGTVSISCQSSQSIVKNYLSWFQQKPGQPPKRLIYKASTLPSGVPSRFKGSGSGTEFTLTISDLECDDAATYYCAASYSDNIYVFGGGTEVVVKR |
| binds |  | anti-human GPC3 IgG1 antibody clone 23 (antibody, V domains shown) VH: CQSVEESGGRLVTPGTALTLTCTVSGFSLSTYWMTWVRQAPGKGLEWIGIINPGGSAYYASWAKGRFTISKTSSATVDLKMTSLTAADTATYFCAGGGGMDPWGPGTLVTVSS VL: DPVLTQTPSSVSAAVGGTVSISCQSSQSIIKNYLSWFQHKPGQPPKRLIYRASTLPSGVPSRFEGSGSGTEFTLTISDLECDDAATYYCAASYSDNIYVFGGGTEVVVKR |
| binds |  | anti-human GPC3 IgG1 antibody clone 41 (antibody, V domains shown) VH: CQSVEESGGRLVTPGTALTLTCTVSGFSLSTYWMTWVRQAPGKGLEWIGIINPGGSAYYASWAKGRFTISKASSATVDLKMTSLTAADTATYFCAGGGGMDPWGPGTLVTVSS VL: DPVLTQTPSSVSAAVGGTVSISCQSSQSIIKNYLSWFQHKPGQPPKRLIYRASTLPSGVPSRFEGSGSGTEFTLTINDLECDDAATYYCAASYSDNIYVFGGGTEVVVKR |
| binds |  | anti-human GPC3 IgG1 antibody clone 49 (antibody, V domains shown) VH: CQSVEESGGRLVTPGTPLTLTCTVSGFSLSTYWMTWVRQAPGKGLEWIGIINPSGSAYYASWAKGRFTISKTSSATVDLKMTSLTAADTATYFCAGGGGMDPWGPGTLVTVSS VL: DPVLTQTPSSVSAAVGGTVSISCQSSQSIVKNYLSWFQQKPGQPPKRLIYKASTLPSGVPSRFKGSGSGTEFTLTISDLECDDAATYYCAASYSDNIYVFGGGTEVVVKR |
| binds | binds | anti-human GPC3 IgG1 antibody clone 40 (antibody, V domains shown) VH: CQSVEESGGRLVTPGTPLTLTCTVSGFSLSTYWMTWVRQAPGKGLEWIGIISPAGSAYYASWAKGRFTISKTSSATVDLKMTSLTTADTATYFCAGGGGMDPWGPGTLVTVSS VL: DPVLTQTPSSVSAAVGGTVSISCQSSQSIVKNYLSWFQQKPGQPPKRLIYKASTLPSGVPSRFKGSGSGTEFTLTISDLECDDAATYYCAASYSDNIYVFGGGTEVVVKR |
| binds |  | anti-human GPC3 IgG1 antibody clone 22 (antibody, V domains shown) VH: CQSVEESGGRLVTPGTPLTLTCTVSGFSLSTYWMTWVRQAPGKGLEWIGIINPTGRAYYASWAKGRFTISKTSSATVDLKMTSLTAADTATYFCAGGGGMDPWGPGTLVTVSS VL: DPVLTQTPSSVSAAVGGTVTINCQSSQSVYSNYLSWFQKKPGQPPKRLIYKASTLVSGVPSRFVGSGSGTEFTLTISDLECDDAATYYCAASYSGNIYVFGGGTEVVVKR |
| binds |  | anti-human GPC3 IgG1 antibody clone 2 (antibody, V domains shown) VH: CQSVEESGGRLVTPGTPLTLTCTVSGFSLSTYNMGWIRQAPGEGLEYIGTISSSTGNTYYATWAKGRFTISKTSSTTVDLKITNLTTEDTATYFCVRVNNMGDIWGPGTLVTVSL VL: AIVMTQTPSSKSVAVGDTVTINCQASESVYKDNRLAWFQQKPGQAPKLLIYLASTLASGVPSRFKGSGSGTEFTLTISDVVCDDAATYYCGGYKDSLFDGFPFGGGTEVVVKR |
| binds |  | anti-human GPC3 IgG1 antibody clone 5 (antibody, V domains shown) VH: CQSVEESGGRLVTPGTPLTLTCTVSGFSLSTYNMGWVRQAPGEGLEYIGTISSSTGNTYYATWAKGRFTISKTSSTTVDLKITNLTTEDTATYFCVRVNNMGDIWGPGTLVTVSL VL: AIVMTQTPSSKSVAVGDTVTINCQASESVYKDNRLAWFQQKPGQPPKLLIYLASTLASGVPSRFKGSGSGTEFTLTISDVVCDDAATYYCGGYKDSLFDGFPFGGGTEVVVKR |
